According to the supplement of paper PMC10849652:
This is one part of the list.

The chains behind the UniProt entries cited, without tags or fusion partners. Where a name states a change or a piece, a line headed by the entry shows the natural chain unless it says otherwise.
UniProt Q9NY35: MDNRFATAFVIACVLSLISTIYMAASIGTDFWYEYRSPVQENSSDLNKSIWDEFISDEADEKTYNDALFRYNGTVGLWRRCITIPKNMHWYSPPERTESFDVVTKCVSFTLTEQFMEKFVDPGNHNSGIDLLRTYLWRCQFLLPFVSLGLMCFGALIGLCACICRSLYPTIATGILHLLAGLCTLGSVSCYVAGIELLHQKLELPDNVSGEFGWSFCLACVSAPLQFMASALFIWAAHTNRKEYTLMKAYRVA
UniProt Q6P4Q7: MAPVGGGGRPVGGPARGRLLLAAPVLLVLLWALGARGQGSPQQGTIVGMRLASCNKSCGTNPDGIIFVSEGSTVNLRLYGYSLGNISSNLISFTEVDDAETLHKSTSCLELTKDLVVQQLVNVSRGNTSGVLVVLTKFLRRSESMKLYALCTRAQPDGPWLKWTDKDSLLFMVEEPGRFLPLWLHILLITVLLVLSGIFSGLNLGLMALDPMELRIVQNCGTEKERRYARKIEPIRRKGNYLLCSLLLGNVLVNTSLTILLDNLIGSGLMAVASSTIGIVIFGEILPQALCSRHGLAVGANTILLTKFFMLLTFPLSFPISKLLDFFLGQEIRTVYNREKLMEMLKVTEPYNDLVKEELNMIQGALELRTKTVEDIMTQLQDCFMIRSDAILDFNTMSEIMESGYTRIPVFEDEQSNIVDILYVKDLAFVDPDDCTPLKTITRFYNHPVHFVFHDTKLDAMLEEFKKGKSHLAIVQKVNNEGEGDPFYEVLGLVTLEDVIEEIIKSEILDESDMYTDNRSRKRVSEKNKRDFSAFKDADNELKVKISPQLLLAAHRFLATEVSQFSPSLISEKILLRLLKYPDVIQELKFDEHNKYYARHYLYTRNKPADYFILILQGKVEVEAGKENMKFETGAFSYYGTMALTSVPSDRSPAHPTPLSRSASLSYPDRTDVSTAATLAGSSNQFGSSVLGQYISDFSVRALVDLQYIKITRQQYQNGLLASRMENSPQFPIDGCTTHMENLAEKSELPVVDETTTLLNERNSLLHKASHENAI
UniProt Q6PJW8: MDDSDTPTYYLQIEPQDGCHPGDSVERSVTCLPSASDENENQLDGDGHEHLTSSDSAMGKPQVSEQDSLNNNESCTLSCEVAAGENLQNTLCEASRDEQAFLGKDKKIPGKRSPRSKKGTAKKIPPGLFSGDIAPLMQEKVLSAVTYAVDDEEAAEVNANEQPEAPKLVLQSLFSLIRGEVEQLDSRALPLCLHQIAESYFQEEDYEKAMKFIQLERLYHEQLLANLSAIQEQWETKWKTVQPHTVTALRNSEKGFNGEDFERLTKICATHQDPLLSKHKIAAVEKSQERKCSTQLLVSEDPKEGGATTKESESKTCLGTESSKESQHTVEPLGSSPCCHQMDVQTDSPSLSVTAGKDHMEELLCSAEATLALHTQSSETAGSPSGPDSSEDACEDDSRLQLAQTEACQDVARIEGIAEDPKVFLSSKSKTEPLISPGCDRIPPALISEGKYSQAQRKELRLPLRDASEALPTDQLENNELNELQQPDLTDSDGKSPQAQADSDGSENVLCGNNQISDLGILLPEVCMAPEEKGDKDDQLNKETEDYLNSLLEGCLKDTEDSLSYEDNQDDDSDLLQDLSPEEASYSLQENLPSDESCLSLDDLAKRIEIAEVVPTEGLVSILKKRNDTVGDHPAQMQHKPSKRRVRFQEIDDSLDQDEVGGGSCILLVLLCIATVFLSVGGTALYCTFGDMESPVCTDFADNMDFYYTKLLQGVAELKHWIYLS
UniProt Q9Y696: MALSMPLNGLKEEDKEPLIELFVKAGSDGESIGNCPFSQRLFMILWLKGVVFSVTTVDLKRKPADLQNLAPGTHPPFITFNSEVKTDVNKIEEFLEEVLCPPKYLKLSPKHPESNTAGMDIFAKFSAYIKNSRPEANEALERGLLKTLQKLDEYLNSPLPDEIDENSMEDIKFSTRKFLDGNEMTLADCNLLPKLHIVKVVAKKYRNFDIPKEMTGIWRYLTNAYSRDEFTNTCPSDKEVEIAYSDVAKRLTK
UniProt Q9BW66: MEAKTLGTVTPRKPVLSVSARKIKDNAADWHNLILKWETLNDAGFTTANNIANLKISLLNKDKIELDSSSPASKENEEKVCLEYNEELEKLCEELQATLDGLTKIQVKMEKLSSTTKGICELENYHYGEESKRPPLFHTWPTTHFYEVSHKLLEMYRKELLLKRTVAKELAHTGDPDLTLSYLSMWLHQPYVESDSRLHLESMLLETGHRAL
UniProt Q00610: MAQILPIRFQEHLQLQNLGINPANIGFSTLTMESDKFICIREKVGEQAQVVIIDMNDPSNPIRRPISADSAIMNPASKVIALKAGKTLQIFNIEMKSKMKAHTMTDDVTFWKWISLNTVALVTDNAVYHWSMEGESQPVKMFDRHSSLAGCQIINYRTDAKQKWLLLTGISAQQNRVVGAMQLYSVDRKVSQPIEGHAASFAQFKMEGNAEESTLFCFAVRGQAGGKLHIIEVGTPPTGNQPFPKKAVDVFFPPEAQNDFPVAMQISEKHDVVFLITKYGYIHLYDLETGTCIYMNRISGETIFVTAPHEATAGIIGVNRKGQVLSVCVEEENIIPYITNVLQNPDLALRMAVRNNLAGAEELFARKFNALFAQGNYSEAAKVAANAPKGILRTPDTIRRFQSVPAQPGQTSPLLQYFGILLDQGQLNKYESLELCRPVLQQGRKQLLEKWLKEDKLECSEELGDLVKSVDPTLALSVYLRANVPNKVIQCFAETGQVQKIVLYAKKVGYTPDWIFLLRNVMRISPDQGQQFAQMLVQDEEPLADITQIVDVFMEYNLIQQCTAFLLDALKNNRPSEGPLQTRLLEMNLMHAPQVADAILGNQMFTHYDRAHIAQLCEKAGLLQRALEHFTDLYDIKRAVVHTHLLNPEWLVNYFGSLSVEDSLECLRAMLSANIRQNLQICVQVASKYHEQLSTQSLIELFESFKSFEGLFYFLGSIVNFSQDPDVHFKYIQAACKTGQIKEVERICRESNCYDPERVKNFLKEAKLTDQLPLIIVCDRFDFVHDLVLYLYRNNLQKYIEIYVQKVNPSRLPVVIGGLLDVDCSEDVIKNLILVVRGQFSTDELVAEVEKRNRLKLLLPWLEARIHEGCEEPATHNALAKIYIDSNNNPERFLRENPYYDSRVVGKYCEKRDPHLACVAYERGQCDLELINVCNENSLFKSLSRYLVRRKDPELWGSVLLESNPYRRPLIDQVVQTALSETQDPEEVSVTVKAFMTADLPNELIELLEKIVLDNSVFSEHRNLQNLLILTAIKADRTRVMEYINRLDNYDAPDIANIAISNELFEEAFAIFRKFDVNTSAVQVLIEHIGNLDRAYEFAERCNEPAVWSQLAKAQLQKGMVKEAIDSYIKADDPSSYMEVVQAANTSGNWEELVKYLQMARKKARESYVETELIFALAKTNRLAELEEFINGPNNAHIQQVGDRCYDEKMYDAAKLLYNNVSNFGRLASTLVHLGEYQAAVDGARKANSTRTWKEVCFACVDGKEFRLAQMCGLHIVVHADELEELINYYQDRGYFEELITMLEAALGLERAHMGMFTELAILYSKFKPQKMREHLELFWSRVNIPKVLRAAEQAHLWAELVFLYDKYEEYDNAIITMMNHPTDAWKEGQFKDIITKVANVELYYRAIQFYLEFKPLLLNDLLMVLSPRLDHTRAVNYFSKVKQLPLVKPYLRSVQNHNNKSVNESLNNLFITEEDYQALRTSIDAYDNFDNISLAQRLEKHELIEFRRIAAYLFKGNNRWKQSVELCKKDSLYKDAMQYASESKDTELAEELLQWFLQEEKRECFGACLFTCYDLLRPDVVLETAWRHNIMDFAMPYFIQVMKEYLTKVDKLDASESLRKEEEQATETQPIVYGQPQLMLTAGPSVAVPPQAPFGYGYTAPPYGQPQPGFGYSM
UniProt Q9BT09: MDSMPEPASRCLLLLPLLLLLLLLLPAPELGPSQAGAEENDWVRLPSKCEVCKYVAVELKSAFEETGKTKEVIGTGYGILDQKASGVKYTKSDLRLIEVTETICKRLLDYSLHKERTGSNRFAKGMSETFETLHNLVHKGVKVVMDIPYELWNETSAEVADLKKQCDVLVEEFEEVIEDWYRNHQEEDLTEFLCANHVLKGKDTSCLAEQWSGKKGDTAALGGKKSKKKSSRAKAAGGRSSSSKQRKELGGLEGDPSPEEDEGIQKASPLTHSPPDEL
UniProt Q9Y2B0: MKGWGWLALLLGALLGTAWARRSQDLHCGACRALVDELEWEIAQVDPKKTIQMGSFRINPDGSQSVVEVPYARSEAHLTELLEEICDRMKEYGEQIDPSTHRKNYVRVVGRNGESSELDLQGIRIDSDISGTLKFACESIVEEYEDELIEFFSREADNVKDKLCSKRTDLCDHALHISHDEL
UniProt Q14011: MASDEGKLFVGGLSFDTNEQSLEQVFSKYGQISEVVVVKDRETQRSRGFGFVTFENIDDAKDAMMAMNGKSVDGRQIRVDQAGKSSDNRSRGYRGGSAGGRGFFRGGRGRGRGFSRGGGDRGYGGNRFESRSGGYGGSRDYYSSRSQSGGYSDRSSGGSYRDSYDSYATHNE
UniProt P51797: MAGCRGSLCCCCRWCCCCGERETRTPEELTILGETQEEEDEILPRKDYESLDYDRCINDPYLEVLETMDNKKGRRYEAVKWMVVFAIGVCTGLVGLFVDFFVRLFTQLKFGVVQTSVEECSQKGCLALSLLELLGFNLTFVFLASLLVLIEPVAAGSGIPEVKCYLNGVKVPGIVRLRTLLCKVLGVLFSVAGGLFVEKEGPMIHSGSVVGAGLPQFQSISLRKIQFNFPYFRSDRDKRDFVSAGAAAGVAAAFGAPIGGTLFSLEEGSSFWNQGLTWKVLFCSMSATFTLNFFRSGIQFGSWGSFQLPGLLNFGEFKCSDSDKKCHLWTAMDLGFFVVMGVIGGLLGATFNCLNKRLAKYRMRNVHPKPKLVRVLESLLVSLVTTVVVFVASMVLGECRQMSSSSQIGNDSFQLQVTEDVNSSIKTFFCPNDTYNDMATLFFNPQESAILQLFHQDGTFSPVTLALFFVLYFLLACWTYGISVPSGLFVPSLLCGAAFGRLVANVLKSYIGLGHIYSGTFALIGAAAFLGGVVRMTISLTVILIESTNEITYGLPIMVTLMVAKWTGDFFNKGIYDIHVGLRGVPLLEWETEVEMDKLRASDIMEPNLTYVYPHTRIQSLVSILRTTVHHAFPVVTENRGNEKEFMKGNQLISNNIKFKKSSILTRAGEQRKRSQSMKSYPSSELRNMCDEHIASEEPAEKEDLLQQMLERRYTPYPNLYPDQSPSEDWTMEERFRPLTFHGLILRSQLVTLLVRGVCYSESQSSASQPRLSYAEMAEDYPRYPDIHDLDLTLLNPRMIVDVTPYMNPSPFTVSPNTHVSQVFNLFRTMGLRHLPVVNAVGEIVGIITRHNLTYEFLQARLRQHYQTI
UniProt Q9UHD1: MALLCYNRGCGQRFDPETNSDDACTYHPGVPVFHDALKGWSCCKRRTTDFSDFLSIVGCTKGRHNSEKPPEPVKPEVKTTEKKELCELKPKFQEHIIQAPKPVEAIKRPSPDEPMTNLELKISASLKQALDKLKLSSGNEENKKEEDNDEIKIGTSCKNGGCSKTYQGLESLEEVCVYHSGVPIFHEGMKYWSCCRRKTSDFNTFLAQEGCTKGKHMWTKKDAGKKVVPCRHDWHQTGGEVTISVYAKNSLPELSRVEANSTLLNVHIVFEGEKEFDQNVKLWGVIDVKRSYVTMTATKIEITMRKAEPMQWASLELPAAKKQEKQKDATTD
UniProt Q7Z7K0: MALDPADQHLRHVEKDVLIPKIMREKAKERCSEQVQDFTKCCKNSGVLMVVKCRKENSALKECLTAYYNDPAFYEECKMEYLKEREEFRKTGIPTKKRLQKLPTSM
UniProt Q8WUH1: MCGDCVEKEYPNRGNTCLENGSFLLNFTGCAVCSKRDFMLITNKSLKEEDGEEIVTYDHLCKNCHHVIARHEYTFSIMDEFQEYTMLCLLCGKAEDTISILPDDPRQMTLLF
UniProt Q96S66: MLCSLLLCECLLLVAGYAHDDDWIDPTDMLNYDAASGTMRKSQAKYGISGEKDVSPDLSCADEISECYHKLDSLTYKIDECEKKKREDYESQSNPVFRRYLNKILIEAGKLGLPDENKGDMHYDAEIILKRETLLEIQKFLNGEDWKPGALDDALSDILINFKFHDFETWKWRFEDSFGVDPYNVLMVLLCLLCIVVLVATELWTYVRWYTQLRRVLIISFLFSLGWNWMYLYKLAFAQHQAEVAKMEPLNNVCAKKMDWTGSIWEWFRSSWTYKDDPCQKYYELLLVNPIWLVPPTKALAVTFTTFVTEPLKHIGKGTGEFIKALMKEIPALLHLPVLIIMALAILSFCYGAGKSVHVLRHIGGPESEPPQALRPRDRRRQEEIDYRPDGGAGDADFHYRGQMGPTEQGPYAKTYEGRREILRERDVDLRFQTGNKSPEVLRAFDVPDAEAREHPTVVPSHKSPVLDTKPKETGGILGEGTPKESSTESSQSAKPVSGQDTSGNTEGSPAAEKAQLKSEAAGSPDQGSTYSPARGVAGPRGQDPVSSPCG

Legend:
Experiment in all cases: log2 fold change, soluble protein after heating vs DMSO (PISA); higher = thermal stabilisation; K562 cells, 10 uM, 30 min; active = over 0.2 and 3.5 SD of the protein, either way, in both replicates (recomputed)
[1] = compound: CC1=C(C=C(C=C1)NC(=O)C2=CC(=CC=C2)C(C)(C)C#N)NC3=CC4=C(C=C3)N=CN(C4=O)C
Method in brief: (§1)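 Quantification of soluble protein used TMTpro 16plex LC-MS/MS, with channel sums equalised. Samples were the supernatant after 21,000xg for 90 min of pooled aliquots from K562 cells (2×10^6 cells/mL) treated with 10 μM compound for 30 min, heated for 3 min over 48°C-58°C, and extracted in PBS with 0.5% NP-40 at 4°C. Values, from duplicates, describe thermal stability against control samples on a log2 fold-change scale.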

[2] = compound: CC1=C(C=C(C=C1)NC(=O)C2=CC(=CC=C2)N(C)C)NC(=O)C3=CC=C(C=C3)O
Method in brief: as §1

[3] = compound: CC1=CC=C(C=C1)SC2=C3C=C(SC3=CN=C2)C(=O)N
Method in brief: as §1

[4] = compound: CC1=NC(=CC=C1)C2=C(N=C(N2)C(C)(C)C)C3=CC4=NC=CN=C4C=C3
Method in brief: as §1

Nexturastat A = compound: CCCCN(Cc1ccc(C(=O)NO)cc1)C(=O)Nc1ccccc1 [Nexturastat A]
Method in brief: as §1

vemurafenib = compound: CCCS(=O)(=O)Nc1ccc(F)c(C(=O)c2c[nH]c3ncc(-c4ccc(Cl)cc4)cc23)c1F [vemurafenib]
Method in brief: as §1

[5] = compound: CCCS(=O)(=O)Nc1ccc(F)c(C(=O)c2c[nH]c3ncc(Cl)cc23)c1F
Method in brief: as §1

[6] = compound: CCCc1cc(C)[nH]c(=O)c1CNC(=O)c1cc(-c2ccnc(N3CCN(C)CC3)c2)cc2c1cnn2C(C)C
Method in brief: as §1

givinostat = compound: CCN(CC)Cc1ccc2cc(COC(=O)Nc3ccc(C(=O)NO)cc3)ccc2c1 [givinostat]
Method in brief: as §1

barasertib = compound: CCN(CCCOc1ccc2c(Nc3cc(CC(=O)Nc4cccc(F)c4)[nH]n3)ncnc2c1)CCOP(=O)(O)O [barasertib]
Method in brief: as §1

[7] = compound: CC[C@@H]1C(=O)N(C)c2cnc(Nc3ccc(C(=O)NC4CCN(C)CC4)cc3OC)nc2N1C1CCCC1
Method in brief: as §1

volasertib = compound: CC[C@@H]1C(=O)N(C)c2cnc(Nc3ccc(C(=O)N[C@H]4CC[C@H](N5CCN(CC6CC6)CC5)CC4)cc3OC)nc2N1C(C)C [volasertib]
Method in brief: as §1

[8] = compound: CC[C@H](C)N1C=C(C2=C(C=C(C=C21)C3=CN=C(C=C3)N4CCNCC4)C(=O)NCC5=C(C=C(NC5=O)C)C)C
Method in brief: as §1

epoxomicin = compound: CC[C@H](C)[C@@H](C(=O)N[C@@H]([C@@H](C)O)C(=O)N[C@@H](CC(C)C)C(=O)[C@]1(CO1)C)NC(=O)[C@H]([C@@H](C)CC)N(C)C(=O)C [epoxomicin]
Method in brief: as §1

[9] = compound: CCn1c(C(=O)N(C2CC2)C2CC2)cc2c3c(ncn3C)c(Nc3cc(C)n(C)n3)nc21
Method in brief: as §1

[10] = compound: CCn1cc(-c2ccnc3[nH]c(-c4cccc(CN(C)C)c4)cc23)c(-c2ccc(NC(=O)N(C)C)cc2)n1
Method in brief: as §1

[11] = compound: CN(C)CC(=O)Nc1ccc2[nH]c(=O)c3ccccc3c2c1
Method in brief: as §1

rosiglitazone = compound: CN(CCOC1=CC=C(C=C1)C[C@H]2C(=O)NC(=O)S2)C3=CC=CC=N3 (racemic) [rosiglitazone]
Method in brief: as §1

[12] = compound: CN1C2=C(C3=C1C(=O)N(N=C3)CC4=CC(=CC=C4)N)SC(=C2)S(=O)C
Method in brief: as §1

[13] = compound: CN1CCC(CNc2ccc3ncc(-c4cccc(OC(F)(F)F)c4)n3n2)CC1
Method in brief: as §1

Measured: log2 fold change

CLDND1 (UniProt Q9NY35)
inactive: [1] 0.085 | [2] -0.06 | [3] -0.065 | [4] -0.046 | Nexturastat A 0.01 | vemurafenib -0.089 | [5] -0.11 | [6] -0.066 | givinostat -0.03 | barasertib 0.023 | [7] 0.094 | volasertib 0.263 | [8] -0.028 | epoxomicin -0.014 | [9] 0.058 | [10] 0.034 | [11] -0.03 | rosiglitazone -0.111 | [12] 0.02 | [13] 0.24

CNNM4 (UniProt Q6P4Q7)
inactive: [1] -0.091 | [2] -0.063 | [3] -0.231 | [4] -0.14 | Nexturastat A 0.014 | vemurafenib -0.102 | [5] -0.051 | [6] 0.023 | givinostat -0.027 | barasertib 0.072 | [7] -0.191 | volasertib -0.219 | [8] 0.115 | epoxomicin -0.022 | [9] -0.067 | [10] 0.055 | [11] 0.009 | rosiglitazone 0.035 | [12] -0.02 | [13] -0.007

CNST (UniProt Q6PJW8)
inactive: [1] -0.004 | [2] -0.048 | [3] 0.011 | [4] -0.009 | Nexturastat A -0.027 | vemurafenib -0.015 | [5] -0.014 | [6] -0.015 | givinostat -0.046 | barasertib 0.012 | [7] 0.039 | volasertib -0.047 | [8] 0.018 | epoxomicin 0.044 | [9] -0.018 | [10] -0.083 | [11] -0.01 | rosiglitazone 0.011 | [12] -0.058 | [13] 0.019

CLIC4 (UniProt Q9Y696)
inactive: [1] -0.012 | [2] -0.034 | [3] -0.01 | [4] 0.014 | Nexturastat A -0.05 | vemurafenib -0.01 | [5] -0.001 | [6] -0.076 | givinostat 0.012 | barasertib 0.02 | [7] -0.043 | volasertib -0.038 | [8] 0.023 | epoxomicin 0.046 | [9] -0.006 | [10] 0.008 | [11] -0.002 | rosiglitazone 0.015 | [12] -0.044 | [13] -0.019

2 consecutive records out of the list so far:
CNST (UniProt Q6PJW8)
inactive: [1] -0.004 | [2] -0.048 | [3] 0.011 | [4] -0.009 | Nexturastat A -0.027 | vemurafenib -0.015 | [5] -0.014 | [6] -0.015 | givinostat -0.046 | barasertib 0.012 | [7] 0.039 | volasertib -0.047 | [8] 0.018 | epoxomicin 0.044 | [9] -0.018 | [10] -0.083 | [11] -0.01 | rosiglitazone 0.011 | [12] -0.058 | [13] 0.019

CLIC4 (UniProt Q9Y696)
inactive: [1] -0.012 | [2] -0.034 | [3] -0.01 | [4] 0.014 | Nexturastat A -0.05 | vemurafenib -0.01 | [5] -0.001 | [6] -0.076 | givinostat 0.012 | barasertib 0.02 | [7] -0.043 | volasertib -0.038 | [8] 0.023 | epoxomicin 0.046 | [9] -0.006 | [10] 0.008 | [11] -0.002 | rosiglitazone 0.015 | [12] -0.044 | [13] -0.019

Following part

CINP isoform 3 (UniProt Q9BW66)
inactive: [1] -0.02 | [2] -0.002 | [3] 0.033 | [4] 0.026 | Nexturastat A 0.045 | vemurafenib -0.023 | [5] 0.031 | [6] -0.141 | givinostat -0.005 | barasertib -0.012 | [7] 0.009 | volasertib 0.065 | [8] -0.01 | epoxomicin 0.038 | [9] -0.015 | [10] 0.093 | [11] -0.01 | rosiglitazone -0.038 | [12] 0.037 | [13] -0.015

CLTC (UniProt Q00610)
inactive: [1] 0.046 | [2] -0.02 | [3] 0.005 | [4] -0.012 | Nexturastat A 0.07 | vemurafenib 0.017 | [5] 0.088 | [6] -0.01 | givinostat 0.079 | barasertib -0.005 | [7] 0.086 | volasertib -0.195 | [8] -0.114 | epoxomicin -0.006 | [9] 0.032 | [10] -0.075 | [11] -0.006 | rosiglitazone -0.019 | [12] 0.014 | [13] 0.173

CNPY3 (UniProt Q9BT09)
inactive: [1] 0.006 | [2] 0.02 | [3] 0 | [4] 0.022 | Nexturastat A -0.012 | vemurafenib -0.052 | [5] -0.004 | [6] -0.028 | givinostat -0.029 | barasertib -0.005 | [7] 0.035 | volasertib 0.055 | [8] -0.026 | epoxomicin -0.022 | [9] -0.019 | [10] 0.011 | [11] 0.013 | rosiglitazone -0.021 | [12] -0.018 | [13] -0.016

CNPY2 (UniProt Q9Y2B0)
inactive: [1] -0.013 | [2] -0.032 | [3] -0.065 | [4] -0.023 | Nexturastat A -0.023 | vemurafenib -0.018 | [5] -0.02 | [6] -0.017 | givinostat -0.019 | barasertib 0 | [7] -0.032 | volasertib -0.027 | [8] -0.044 | epoxomicin -0.003 | [9] 0.027 | [10] 0.001 | [11] -0.055 | rosiglitazone 0.003 | [12] -0.014 | [13] 0.058

CIAO3 (UniProt Q9H6Q4)
inactive: [1] -0.023 | [2] -0.028 | [3] 0.054 | [4] 0.037 | Nexturastat A -0.005 | vemurafenib 0.085 | [5] 0.035 | [6] 0.008 | givinostat 0.003 | barasertib 0.001 | [7] 0.028 | volasertib -0.133 | [8] 0.007 | epoxomicin -0.038 | [9] -0.004 | [10] -0.018 | [11] 0.027 | rosiglitazone 0.018 | [12] -0.081 | [13] -0.021

CIRBP isoform 2 (UniProt Q14011)
inactive: [1] 0.042 | [2] -0.008 | [3] -0.052 | [4] -0.045 | Nexturastat A 0.162 | vemurafenib 0.016 | [5] -0.047 | [6] 0.044 | givinostat -0.065 | barasertib -0.096 | [7] 0.152 | volasertib 0.196 | [8] 0.012 | epoxomicin -0.111 | [9] 0.03 | [10] 0.198 | [11] -0.031 | rosiglitazone -0.093 | [12] 0.1 | [13] 0.254

CLCN6 isoform 5 (UniProt P51797)
inactive: [1] -0.085 | [2] 0.015 | [3] 0.029 | [4] -0.013 | Nexturastat A 0.198 | vemurafenib 0.076 | [5] 0.007 | [6] 0.053 | givinostat 0.109 | barasertib 0.099 | [7] -0.069 | volasertib -0.076 | [8] 0.007 | epoxomicin 0.058 | [9] 0.053 | [10] -0.136 | [11] -0.079 | rosiglitazone 0.034 | [12] -0.043 | [13] -0.344

CNNM3 (UniProt Q8NE01)
inactive: [1] -0.028 | [2] 0.007 | [3] 0.042 | [4] 0.058 | Nexturastat A -0.006 | vemurafenib -0.014 | [5] 0.078 | [6] 0.057 | givinostat 0.004 | barasertib 0.022 | [7] 0.04 | volasertib -0.063 | [8] -0.018 | epoxomicin -0.016 | [9] -0.025 | [10] 0.04 | [11] -0.02 | rosiglitazone -0.007 | [12] 0.021 | [13] 0.061

CHORDC1 (UniProt Q9UHD1)
inactive: [1] 0.062 | [2] -0.014 | [3] 0.012 | [4] 0.046 | Nexturastat A -0.022 | vemurafenib 0.029 | [5] 0.022 | [6] -0.025 | givinostat -0.019 | barasertib 0.026 | [7] -0.007 | volasertib 0.11 | [8] 0.044 | epoxomicin 0.046 | [9] 0.004 | [10] -0.059 | [11] 0.016 | rosiglitazone 0.017 | [12] -0.107 | [13] 0.024

CMC1 (UniProt Q7Z7K0)
inactive: [1] -0.021 | [2] 0.018 | [3] -0.118 | [4] 0.052 | Nexturastat A -0.041 | vemurafenib -0.018 | [5] -0.174 | [6] 0.051 | givinostat -0.046 | barasertib 0.031 | [7] -0.033 | volasertib 0.059 | [8] -0.034 | epoxomicin 0.028 | [9] -0.04 | [10] 0.031 | [11] -0.15 | rosiglitazone -0.039 | [12] 0.025 | [13] 0

CHURC1 isoform 2 (UniProt Q8WUH1)
inactive: [1] 0.052 | [2] 0.025 | [3] 0.018 | [4] -0.032 | Nexturastat A 0.023 | vemurafenib 0.011 | [5] 0.012 | [6] -0.063 | givinostat 0.027 | barasertib 0.004 | [7] -0.02 | volasertib -0.175 | [8] 0.026 | epoxomicin 0.029 | [9] -0.014 | [10] -0.057 | [11] 0.007 | rosiglitazone 0.039 | [12] -0.09 | [13] -0.159

CLCC1 (UniProt Q96S66)
inactive: [1] 0.017 | [2] -0.019 | [3] 0.003 | [4] 0.009 | Nexturastat A -0.072 | vemurafenib -0.003 | [5] -0.013 | [6] -0.098 | givinostat 0.001 | barasertib -0.013 | [7] 0.029 | volasertib -0.025 | [8] -0.047 | epoxomicin -0.025 | [9] 0.013 | [10] 0.009 | [11] 0.018 | rosiglitazone 0.023 | [12] -0.052 | [13] 0.022
